Here are results for 1 molecule from article PMC4532887, “Structural and mechanistic insights into phospholipid transfer by Ups1–Mdm35 in mitochondria” (Nature Communications, 2015).

These are yes or no findings as the source states them, for the method shown. Where a sequence is shown, tags or fusion partners need not be part of it.

For experiment [1], the target named is Ups1ΔC5 (Ups1 lacking the C-terminal five residues), N-terminally His6 tagged (S. cerevisiae) (UniProt Q05776). As to the kind of experiment: SEC; gel-filtration analysis of the Ups1ΔC5–Mdm35ΔC5 complex in solution; apparent MW; both purified. A general note: In gel filtration, larger molecules generally elute earlier.
For experiment [2] the target is unchanged. As to the kind of experiment: crystal structure; Ups1ΔC5–Mdm35ΔC5 complex without PA, 1.40 Å; sitting drop at 20 °C, 0.2 M ammonium citrate tribasic pH 7.0, 20% polyethylene glycol 3,350; both purified.

B1: Ups1ΔC5 (Ups1 lacking the C-terminal five residues), N-terminally His6 tagged (domain or fragment, UniProt Q05776 1-170)
chain: MVLLHKSTHIFPTDFASVSRAFFNRYPNPYSPHVLSIDTISRNVDQEGNLRTTRLLKKSGKLPTWVKPFLRGITETWIIEVSVVNPANSTMKTYTRNLDHTGIMKVEEYTTYQFDSATSSTIADSRVKFSSGFNMGIKSKVEDWSRTKFDENVKKSRMGMAFVIQKLEEA
On to B1, for which the binding entry in experiment [1] and in experiment [2] was “no binding” in each case.
